Paper PMC4534584
Results are given in words; binding and its absence hold for the method and conditions named. In cells and extracts the contact can be indirect. Some binding calls cover weakened binding; strength is not graded here.

Chains of the proteins cited; added tags and fusions are not shown. Residues count along the entry.
UniProt P37173, residues 23-567: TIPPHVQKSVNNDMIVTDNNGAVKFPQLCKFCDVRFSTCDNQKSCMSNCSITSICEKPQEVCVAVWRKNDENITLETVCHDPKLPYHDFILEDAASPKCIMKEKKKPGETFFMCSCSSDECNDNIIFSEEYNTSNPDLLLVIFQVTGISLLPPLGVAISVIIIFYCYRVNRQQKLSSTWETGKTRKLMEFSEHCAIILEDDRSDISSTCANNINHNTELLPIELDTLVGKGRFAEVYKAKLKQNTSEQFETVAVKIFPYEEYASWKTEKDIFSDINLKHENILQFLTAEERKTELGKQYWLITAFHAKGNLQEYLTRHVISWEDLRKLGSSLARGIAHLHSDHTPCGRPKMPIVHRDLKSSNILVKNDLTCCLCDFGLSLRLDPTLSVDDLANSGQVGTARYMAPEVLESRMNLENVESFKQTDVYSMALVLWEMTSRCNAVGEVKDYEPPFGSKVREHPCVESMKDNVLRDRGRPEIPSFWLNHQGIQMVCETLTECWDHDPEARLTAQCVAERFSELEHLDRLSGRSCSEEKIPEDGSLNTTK
UniProt P05106, residues 27-788: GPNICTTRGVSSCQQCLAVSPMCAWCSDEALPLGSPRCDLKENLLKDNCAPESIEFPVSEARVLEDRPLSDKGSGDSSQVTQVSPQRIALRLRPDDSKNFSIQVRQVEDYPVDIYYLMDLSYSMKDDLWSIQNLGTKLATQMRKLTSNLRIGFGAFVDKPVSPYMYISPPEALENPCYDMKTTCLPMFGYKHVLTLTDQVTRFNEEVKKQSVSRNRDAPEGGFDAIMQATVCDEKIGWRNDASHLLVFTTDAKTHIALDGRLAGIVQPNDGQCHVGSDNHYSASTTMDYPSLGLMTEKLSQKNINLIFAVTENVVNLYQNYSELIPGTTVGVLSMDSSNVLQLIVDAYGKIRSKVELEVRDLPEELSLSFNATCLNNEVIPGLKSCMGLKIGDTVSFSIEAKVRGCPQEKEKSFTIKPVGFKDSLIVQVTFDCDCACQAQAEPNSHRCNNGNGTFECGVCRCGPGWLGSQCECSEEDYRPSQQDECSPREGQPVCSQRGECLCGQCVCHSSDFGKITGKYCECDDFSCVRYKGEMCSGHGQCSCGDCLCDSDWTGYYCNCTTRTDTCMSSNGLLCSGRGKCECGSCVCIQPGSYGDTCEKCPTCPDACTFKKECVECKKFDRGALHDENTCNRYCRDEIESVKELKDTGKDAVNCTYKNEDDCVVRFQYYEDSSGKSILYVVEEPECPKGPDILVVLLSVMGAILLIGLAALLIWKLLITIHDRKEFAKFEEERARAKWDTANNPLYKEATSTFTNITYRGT

Molecular target: TGF-β Receptor Type II (human (endogenous in MDA-MB-231)) (UniProt P37173)
Experiment: FRET or BRET; FRET signal in MDA-MB-231 cells on rigid and compliant substrates, Fn concentrations ranging from 0-50 μg/ml

binding: binds
Substance: Integrin β3 (from UniProt P05106 27-788) (receptor)
